Data: PubChem BioAssay AID2685 (National Center for Advancing Translational Sciences (NCATS), 2010)
This is one part of the list. These are further read-outs of the screen, such as a control signal, another cell line or another target. No call is given for them. The list favours compounds with an active or inconclusive main result. Words in brackets tell the shape of the fitted curve; partial curves, single points and poor fits give uncertain potencies.

Experiment: qHTS Assay for Lipid Storage Modulators in Drosophila S3 Cells;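 for cell number change: cells counted by Cell Tracker Red CMTPX staining in the red channel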
Settings: BODIPY lipid droplet fluorescence, 18-24 h; for cell number change: measured here: cell count max response, cells fed with added oleic acid
Outline: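 Drosophila S3 cells got compounds at several concentrations plus oleic acid (400 uM solution). Laser-scanning cytometry with 488 nm excitation read lipid droplets at 500-530 nm and cells at 575-640 nm. Percent activity was relative to 20 uM Triacsin C.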

[1] = measured here: cell number channel AC50, cells fed with added oleic acid
[2] = measured here: lipid fluorescence (Fed channel) AC50, cells fed with added oleic acid

Row | SMILES | AC50 [1] | AC50 [2] | cell number change [%]
1 | CCN1CCN(Cc2ccc(OC)c(OCc3ccccc3)c2)CC1 | 1.3 µM [falling, full curve] | 1.64 µM [falling, full curve] | –
2 | CCS(=O)(=O)N1CCC(NC(=O)c2ccco2)CC1 | – | 4.61 µM [falling, full curve] | -3.5
3 | COc1ccc(CCNC(=O)CN2C(=O)c3ccccc3S2(=O)=O)cc1OC | – | 2.91 µM [falling, partial curve] | –
4 | Nn1c(SCc2cccc(Br)c2)nnc1-c1cccnc1 | – | 6.51 µM [rising, single point] | 7.37
5 | COc1cc(OC)nc(S(C)(=O)=O)n1 | – | 9.2 µM [falling, partial curve, poor fit] | -27.6
6 | COc1cc(NC(=O)/C=C/c2ccccc2)c(C(=O)O)cc1OC | 0.82 µM [rising, full curve, poor fit] | – | 25.1
7 | O=C(Nc1cccc(Cl)c1)Nc1nnc(CSCCOc2ccc(Cl)cc2)s1 | 29.1 µM [falling, single point] | – | -39
8 | Cc1ccc2nc(-c3ccccn3)cc(C(=O)Nc3ccc(S(=O)(=O)N4CCOCC4)cc3)c2c1 | – | 0.326 µM [falling, single point] | 32.8
9 | CCn1ncc(Br)c1C(=O)Nc1ccccc1C(F)(F)F | – | 0.58 µM [rising, single point] | –
10 | CCOc1ccc(NC(=O)C2CCC(CNc3c(N4CCOCC4)c(=O)c3=O)CC2)cc1 (stereo not given) | 0.00461 µM [falling, full curve, poor fit] | 4.61 µM [falling, partial curve] | -31.8
11 | COc1ccc(NC(=O)CCSc2nc(C)cs2)cc1 | – | 29.1 µM [rising, single point] | -1.57
12 | Cc1ccccc1NS(=O)(=O)c1ccc(C(=O)N2CCN(c3ccccc3O)CC2)cc1 | 22.4 µM [falling, single point] | 35.5 µM [falling, single point] | -40.1
13 | Cc1ccc2nc(N(CCN(C)C)C(=O)/C=C/c3cccs3)sc2c1 | – | 6.51 µM [rising, single point] | -7.45
14 | O=C(CC1CC2CCC1C2)N1CCN(S(=O)(=O)c2ccccc2C(F)(F)F)CC1 (stereo not given) | 18.4 µM [falling, partial curve] | 0.0461 µM [falling, full curve] | -72.2
15 | CCOC(=O)c1[nH]c2ccccc2c1NC(=S)Nc1cccc(C)c1C | – | 20.6 µM [rising, single point] | -1.84
16 | CC(=O)CSc1nnc(NC(=O)CCc2ccccc2)s1 | 0.13 µM [falling, full curve, poor fit] | 0.731 µM [rising, full curve] | -7.8
17 | O=C(NC(=S)Nc1ccc(O)cc1)C1CCCC1 | – | 11.6 µM [rising, partial curve, poor fit] | 5.04
18 | COc1ccccc1N1CCN(C(=O)CCCCCn2c(=O)[nH]c3ccsc3c2=O)CC1 | 29.1 µM [rising, single point] | 29.1 µM [rising, single point] | 31.9
19 | CCN1CCN(c2oc(-c3ccccc3C)nc2S(=O)(=O)c2ccccc2)CC1 | 0.0058 µM [falling, full curve, poor fit] | – | -31.3

Row | SMILES | AC50 [1] | AC50 [2] | cell number change [%]
20 | CCOc1ccc(OCC)c(NC(=O)C2CCN(c3ncccn3)CC2)c1 | – | 32.6 µM [rising, partial curve, poor fit] | 9.71
21 | c1coc(Cn2c(SCc3nc4ccccc4[nH]3)nnc2-c2cccs2)c1 | – | 7.31 µM [rising, partial curve] | 0.641
22 | CCN=C1SC(CC(=O)Nc2ccc(C(F)(F)F)cc2)C(=O)N1CC (stereo not given) | 20.6 µM [falling, single point] | 29.1 µM [falling, single point] | -32.5
23 | Oc1ccc2ccccc2c1C=Nc1ccccc1 | – | – | -1.23
24 | COC(=O)c1cc(C(=O)Nc2ccc(C)cn2)cc([N+](=O)[O-])c1 | – | 3.66 µM [rising, partial curve, poor fit] | –
25 | Cc1ccccc1NC(=O)CCN1C(=O)c2ccccc2C1=O | – | – | -11
26 | O=C(COC(=O)C1CCN(c2ccc(C(F)(F)F)cn2)CC1)NCc1ccc(F)cc1 | – | – | 14.5
27 | Cc1ccc2c(c1)N(C(C)C(=O)NCc1ccccn1)C(=O)CO2 (stereo not given) | 1.16 µM [rising, full curve, poor fit] | – | 5.02
28 | O=C(c1cccc(F)c1)N1CCCN(C(=O)c2cccc(F)c2)CC1 | – | 0.82 µM [falling, single point] | 2.91
29 | CN(C)CCCN(C(=O)c1sc2ccccc2c1Cl)c1nc2ccc(F)cc2s1 | 32.6 µM [falling, single point] | 0.651 µM [falling, partial curve, poor fit] | -34.3
30 | N#C/C(=C\c1ccc(F)cc1)C(=O)Nc1ccccn1 | – | 1.84 µM [falling, partial curve, poor fit] | -11.3
31 | Cc1ccc(NC2=CC(=O)CCC2)cc1C | 2.31 µM [rising, full curve] | 0.58 µM [falling, single point] | 48
32 | COCCSc1ccccc1C(=O)Nc1ccccc1C#N | – | – | 18.6
33 | C=CCn1cnc2c(c1=O)c1nc3ccccc3nc1n2/N=C/c1cccc(OC)c1 | 0.092 µM [rising, full curve, poor fit] | 0.259 µM [rising, full curve] | 24.2
34 | Cc1ccccc1N(C(=O)c1ccccn1)C(C(=O)NCc1ccccc1)c1ccncc1 (stereo not given) | – | – | 12.4
35 | CCN(C(=O)COC(=O)c1ccc(=O)n(Cc2ccccc2)n1)C1CCCCC1 | – | 0.0058 µM [falling, full curve, poor fit] | -5.58
36 | CCOc1cc(N2CCOCC2)c(OCC)cc1NC(=O)CCS(=O)(=O)c1ccc(Cl)cc1 | – | 0.058 µM [rising, full curve] | -5.67
37 | COc1ccc(-c2cc(OC(=O)c3ccc(F)cc3)c3c(C)oc(C)c3c(=O)c2)cc1 | – | 29.1 µM [falling, single point] | 6.93

Filtered by structure: the entries above with a CF3 group.
Row | SMILES | AC50 [1] | AC50 [2] | cell number change [%]
9 | CCn1ncc(Br)c1C(=O)Nc1ccccc1C(F)(F)F | – | 0.58 µM [rising, single point] | –
14 | O=C(CC1CC2CCC1C2)N1CCN(S(=O)(=O)c2ccccc2C(F)(F)F)CC1 (stereo not given) | 18.4 µM [falling, partial curve] | 0.0461 µM [falling, full curve] | -72.2
22 | CCN=C1SC(CC(=O)Nc2ccc(C(F)(F)F)cc2)C(=O)N1CC (stereo not given) | 20.6 µM [falling, single point] | 29.1 µM [falling, single point] | -32.5
26 | O=C(COC(=O)C1CCN(c2ccc(C(F)(F)F)cn2)CC1)NCc1ccc(F)cc1 | – | – | 14.5
